This series is described as follows: TMTcalibrator quantification of regulated proteins in AD CSF versus control. The following applies: CSF of AD patient versus control; non-modified peptides of each protein summed for three control and three AD cases. Details: species or system human.

B1: Q05639 (protein, UniProt Q05639 1-463, looked up)
chain: MGKEKTHINIVVIGHVDSGKSTTTGHLIYKCGGIDKRTIEKFEKEAAEMGKGSFKYAWVLDKLKAERERGITIDISLWKFETTKYYITIIDAPGHRDFIKNMITGTSQADCAVLIVAAGVGEFEAGISKNGQTREHALLAYTLGVKQLIVGVNKMDSTEPAYSEKRYDEIVKEVSAYIKKIGYNPATVPFVPISGWHGDNMLEPSPNMPWFKGWKVERKEGNASGVSLLEALDTILPPTRPTDKPLRLPLQDVYKIGGIGTVPVGRVETGILRPGMVVTFAPVNITTEVKSVEMHHEALSEALPGDNVGFNVKNVSVKDIRRGNVCGDSKSDPPQEAAQFTSQVIILNHPGQISAGYSPVIDCHTAHIACKFAELKEKIDRRSGKKLEDNPKSLKSGDAAIVEMVPGKPMCVESFSQYPPLGRFAVRDMRQTVAVGVIKNVEKKSGGAGKVTKSAQKAQKAGK
modifications: full-length
B1: the “Log2 AD/Control” value is 0.68.

B2: Q92506 (protein, UniProt Q92506 1-261, looked up)
chain: MASQLQNRLRSALALVTGAGSGIGRAVSVRLAGEGATVAACDLDRAAAQETVRLLGGPGSKEGPPRGNHAAFQADVSEARAARCLLEQVQACFSRPPSVVVSCAGITQDEFLLHMSEDDWDKVIAVNLKGTFLVTQAAAQALVSNGCRGSIINISSIVGKVGNVGQTNYAASKAGVIGLTQTAARELGRHGIRCNSVLPGFIATPMTQKVPQKVVDKITEMIPMGHLGDPEDVADVVAFLASEDSGYITGTSVEVTGGLFM
modifications: full-length
For the molecule B2, the “Log2 AD/Control” value is listed as 0.87.

B3: P20827 (protein, UniProt P20827 1-205, looked up)
chain: MEFLWAPLLGLCCSLAAADRHTVFWNSSNPKFRNEDYTIHVQLNDYVDIICPHYEDHSVADAAMEQYILYLVEHEEYQLCQPQSKDQVRWQCNRPSAKHGPEKLSEKFQRFTPFTLGKEFKEGHSYYYISKPIHQHEDRCLRLKVTVSGKITHSPQAHDNPQEKRLAADDPEVRVLHSIGHSAAPRLFPLAWTVLLLPLLLLQTP
modifications: full-length
For the molecule B3, the “Log2 AD/Control” value was 0.86.

B4: Q6MZW2 (protein, UniProt Q6MZW2 1-842, looked up)
chain: MKPGGFWLHLTLLGASLPAALGWMDPGTSRGPDVGVGESQAEEPRSFEVTRREGLSSHNELLASCGKKFCSRGSRCVLSRKTGEPECQCLEACRPSYVPVCGSDGRFYENHCKLHRAACLLGKRITVIHSKDCFLKGDTCTMAGYARLKNVLLALQTRLQPLQEGDSRQDPASQKRLLVESLFRDLDADGNGHLSSSELAQHVLKKQDLDEDLLGCSPGDLLRFDDYNSDSSLTLREFYMAFQVVQLSLAPEDRVSVTTVTVGLSTVLTCAVHGDLRPPIIWKRNGLTLNFLDLEDINDFGEDDSLYITKVTTIHMGNYTCHASGHEQLFQTHVLQVNVPPVIRVYPESQAQEPGVAASLRCHAEGIPMPRITWLKNGVDVSTQMSKQLSLLANGSELHISSVRYEDTGAYTCIAKNEVGVDEDISSLFIEDSARKTLANILWREEGLSVGNMFYVFSDDGIIVIHPVDCEIQRHLKPTEKIFMSYEEICPQREKNATQPCQWVSAVNVRNRYIYVAQPALSRVLVVDIQAQKVLQSIGVDPLPAKLSYDKSHDQVWVLSWGDVHKSRPSLQVITEASTGQSQHLIRTPFAGVDDFFIPPTNLIINHIRFGFIFNKSDPAVHKVDLETMMPLKTIGLHHHGCVPQAMAHTHLGGYFFIQCRQDSPASAARQLLVDSVTDSVLGPNGDVTGTPHTSPDGRFIVSAAADSPWLHVQEITVRGEIQTLYDLQINSGISDLAFQRSFTESNQYNIYAALHTEPDLLFLELSTGKVGMLKNLKEPPAGPAQPWGGTHRIMRDSGLFGQYLLTPARESLFLINGRQNTLRCEVSGIKGGTTVVWVGEV
modifications: full-length
As to B4, the “Log2 AD/Control” value turned out to be 1.38.

B5: Q92731 (protein, UniProt Q92731 1-530, looked up)
chain: MDIKNSPSSLNSPSSYNCSQSILPLEHGSIYIPSSYVDSHHEYPAMTFYSPAVMNYSIPSNVTNLEGGPGRQTTSPNVLWPTPGHLSPLVVHRQLSHLYAEPQKSPWCEARSLEHTLPVNRETLKRKVSGNRCASPVTGPGSKRDAHFCAVCSDYASGYHYGVWSCEGCKAFFKRSIQGHNDYICPATNQCTIDKNRRKSCQACRLRKCYEVGMVKCGSRRERCGYRLVRRQRSADEQLHCAGKAKRSGGHAPRVRELLLDALSPEQLVLTLLEAEPPHVLISRPSAPFTEASMMMSLTKLADKELVHMISWAKKIPGFVELSLFDQVRLLESCWMEVLMMGLMWRSIDHPGKLIFAPDLVLDRDEGKCVEGILEIFDMLLATTSRFRELKLQHKEYLCVKAMILLNSSMYPLVTATQDADSSRKLAHLLNAVTDALVWVIAKSGISSQQQSMRLANLLMLLSHVRHASNKGMEHLLNMKCKNVVPVYDLLLEMLNAHVLRGCKSSITGSECSPAEDSKSKEGSQNPQSQ
modifications: full-length
Consider B5, for which the “Log2 AD/Control” value is recorded as 1.73.

B6: Q9NZ08 (protein, UniProt Q9NZ08 1-941, looked up)
chain: MVFLPLKWSLATMSFLLSSLLALLTVSTPSWCQSTEASPKRSDGTPFPWNKIRLPEYVIPVHYDLLIHANLTTLTFWGTTKVEITASQPTSTIILHSHHLQISRATLRKGAGERLSEEPLQVLEHPRQEQIALLAPEPLLVGLPYTVVIHYAGNLSETFHGFYKSTYRTKEGELRILASTQFEPTAARMAFPCFDEPAFKASFSIKIRREPRHLAISNMPLVKSVTVAEGLIEDHFDVTVKMSTYLVAFIISDFESVSKITKSGVKVSVYAVPDKINQADYALDAAVTLLEFYEDYFSIPYPLPKQDLAAIPDFQSGAMENWGLTTYRESALLFDAEKSSASSKLGITMTVAHELAHQWFGNLVTMEWWNDLWLNEGFAKFMEFVSVSVTHPELKVGDYFFGKCFDAMEVDALNSSHPVSTPVENPAQIREMFDDVSYDKGACILNMLREYLSADAFKSGIVQYLQKHSYKNTKNEDLWDSMASICPTDGVKGMDGFCSRSQHSSSSSHWHQEGVDVKTMMNTWTLQKGFPLITITVRGRNVHMKQEHYMKGSDGAPDTGYLWHVPLTFITSKSDMVHRFLLKTKTDVLILPEEVEWIKFNVGMNGYYIVHYEDDGWDSLTGLLKGTHTAVSSNDRASLINNAFQLVSIGKLSIEKALDLSLYLKHETEIMPVFQGLNELIPMYKLMEKRDMNEVETQFKAFLIRLLRDLIDKQTWTDEGSVSERMLRSQLLLLACVHNYQPCVQRAEGYFRKWKESNGNLSLPVDVTLAVFAVGAQSTEGWDFLYSKYQFSLSSTEKSQIEFALCRTQNKEKLQWLLDESFKGDKIKTQEFPQILTLIGRNPVGYPLAWQFLRKNWNKLVQKFELGSSSIAHMVMGTTNQFSTRTRLEEVKGFFSSLKENGSQLRCVQQTIETIEENIGWMDKNFDKIRVWLQSEKLERM
modifications: full-length
B6: the “Log2 AD/Control” value was 1.16.

B7: O43909 (protein, UniProt O43909 1-919, looked up)
chain: MTGYTMLRNGGAGNGGQTCMLRWSNRIRLTWLSFTLFVILVFFPLIAHYYLTTLDEADEAGKRIFGPRVGNELCEVKHVLDLCRIRESVSEELLQLEAKRQELNSEIAKLNLKIEACKKSIENAKQDLLQLKNVISQTEHSYKELMAQNQPKLSLPIRLLPEKDDAGLPPPKATRGCRLHNCFDYSRCPLTSGFPVYVYDSDQFVFGSYLDPLVKQAFQATARANVYVTENADIACLYVILVGEMQEPVVLRPAELEKQLYSLPHWRTDGHNHVIINLSRKSDTQNLLYNVSTGRAMVAQSTFYTVQYRPGFDLVVSPLVHAMSEPNFMEIPPQVPVKRKYLFTFQGEKIESLRSSLQEARSFEEEMEGDPPADYDDRIIATLKAVQDSKLDQVLVEFTCKNQPKPSLPTEWALCGEREDRLELLKLSTFALIITPGDPRLVISSGCATRLFEALEVGAVPVVLGEQVQLPYQDMLQWNEAALVVPKPRVTEVHFLLRSLSDSDLLAMRRQGRFLWETYFSTADSIFNTVLAMIRTRIQIPAAPIREEAAAEIPHRSGKAAGTDPNMADNGDLDLGPVETEPPYASPRYLRNFTLTVTDFYRSWNCAPGPFHLFPHTPFDPVLPSEAKFLGSGTGFRPIGGGAGGSGKEFQAALGGNVPREQFTVVMLTYEREEVLMNSLERLNGLPYLNKVVVVWNSPKLPSEDLLWPDIGVPIMVVRTEKNSLNNRFLPWNEIETEAILSIDDDAHLRHDEIMFGFRVWREARDRIVGFPGRYHAWDIPHQSWLYNSNYSCELSMVLTGAAFFHKYYAYLYSYVMPQAIRDMVDEYINCEDIAMNFLVSHITRKPPIKVTSRWTFRCPGCPQALSHDDSHFHERHKCINFFVKVYGYMPLLYTQFRVDSVLFKTRLPHDKTKCFKFI
modifications: full-length
Consider B7, for which the “Log2 AD/Control” value is 1.03.

Values taken from US12419871B2, “Biomolecules involved in Alzheimer's disease” (ELECTROPHORETICS LIMITED, priority 2015, dated 2025).
